{"source": "the supplement of paper PMC3334620", "note": "Whole data set: some 33,000 sequences, median “E-score (-0.5 to 0.5)” near -0.015, cut for the highest 2% near 0.3. The list shows a part of the results.", "data": [{"molecular_target": "T1, Abf1 (UniProt P14164)", "T1 sequence": "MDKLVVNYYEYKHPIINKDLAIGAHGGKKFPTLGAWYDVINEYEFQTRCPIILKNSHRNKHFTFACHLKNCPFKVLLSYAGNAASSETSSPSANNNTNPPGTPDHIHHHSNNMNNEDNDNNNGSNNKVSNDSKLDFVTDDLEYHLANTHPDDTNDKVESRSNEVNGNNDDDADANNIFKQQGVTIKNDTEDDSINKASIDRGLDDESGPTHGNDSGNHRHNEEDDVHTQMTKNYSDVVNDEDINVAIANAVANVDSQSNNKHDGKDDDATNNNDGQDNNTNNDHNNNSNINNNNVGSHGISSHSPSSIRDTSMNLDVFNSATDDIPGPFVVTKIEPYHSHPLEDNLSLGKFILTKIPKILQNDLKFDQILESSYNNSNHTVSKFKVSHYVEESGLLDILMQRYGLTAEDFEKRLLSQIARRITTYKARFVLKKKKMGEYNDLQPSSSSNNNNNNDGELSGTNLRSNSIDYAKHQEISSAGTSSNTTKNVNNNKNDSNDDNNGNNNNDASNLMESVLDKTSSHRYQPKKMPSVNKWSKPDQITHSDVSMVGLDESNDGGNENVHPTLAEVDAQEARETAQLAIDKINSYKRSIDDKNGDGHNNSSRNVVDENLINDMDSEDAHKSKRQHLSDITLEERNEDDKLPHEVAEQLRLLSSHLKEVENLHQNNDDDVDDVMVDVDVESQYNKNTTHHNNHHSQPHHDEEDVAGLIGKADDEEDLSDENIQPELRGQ", "assay": "PBM E-score (8-mer binding enrichment) (E-score (-0.5 to 0.5)); higher = stronger / more preferred TF binding", "conditions": "protein concentration: 200 nM; construct: GST-full length", "in_short": "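Bound GST-tagged yeast transcription factors, applied at about 100-200 nM to double-stranded universal all-10-mer Agilent arrays, were detected with fluorescent anti-GST. Scans were normalised with masliner. A modified Wilcoxon-Mann-Whitney statistic, the E-score, was assigned to each ungapped eight-base word pooled with its reverse complement by the Universal PBM Analysis Suite.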", "values": [{"sequence": "GGTTCTCA", "PBM E-score": 0.0135}, {"sequence": "CACTTCGG", "PBM E-score": -0.135}, {"sequence": "TAACATTA", "PBM E-score": -0.121}, {"sequence": "AGCAAAGC", "PBM E-score": -0.2}, {"sequence": "CCTCACGA", "PBM E-score": 0.0455}, {"sequence": "TGCGAAAA", "PBM E-score": 0.175}, {"sequence": "ATCTCACA", "PBM E-score": 0.0879}, {"sequence": "CCAATATC", "PBM E-score": 0.145}, {"sequence": "ACCTACCC", "PBM E-score": -0.27}, {"sequence": "ATAATTCC", "PBM E-score": -0.0674}, {"sequence": "GTCCGGGA", "PBM E-score": 0.135}, {"sequence": "AGAATGCT", "PBM E-score": 0.121}, {"sequence": "TACATGGA", "PBM E-score": -0.11}, {"sequence": "AAATGTTG", "PBM E-score": -0.0635}, {"sequence": "AAGAGAGG", "PBM E-score": 0.0446}, {"sequence": "GAAAAGTC", "PBM E-score": 0.128}, {"sequence": "ATTATTGA", "PBM E-score": 0.00194}, {"sequence": "ATGAAACG", "PBM E-score": 0.0474}, {"sequence": "GAGCCTAC", "PBM E-score": -0.171}, {"sequence": "CCCCGTAA", "PBM E-score": -0.0248}, {"sequence": "CCAGCCAC", "PBM E-score": -0.0544}, {"sequence": "GTCGGGCA", "PBM E-score": 0.0625}, {"sequence": "ACCTAGAG", "PBM E-score": -0.0622}, {"sequence": "ACTTTAGG", "PBM E-score": -0.202}, {"sequence": "AAATCGAT", "PBM E-score": 0.0198}, {"sequence": "CACAGGAC", "PBM E-score": -0.0865}, {"sequence": "CAAGCGCC", "PBM E-score": -0.269}, {"sequence": "AGGGTTGC", "PBM E-score": -0.0578}, {"sequence": "AGTAGTTC", "PBM E-score": -0.136}, {"sequence": "AGACGTTG", "PBM E-score": 0.109}, {"sequence": "ACCGGAAC", "PBM E-score": -0.0354}, {"sequence": "ACCCGTTG", "PBM E-score": -0.0814}, {"sequence": "CTTTGCAA", "PBM E-score": -0.00259}, {"sequence": "GACTCCGC", "PBM E-score": -0.14}, {"sequence": "CCTCTCAG", "PBM E-score": -0.306}, {"sequence": "GGCGCTAA", "PBM E-score": -0.0737}, {"sequence": "ACGCTGTG", "PBM E-score": 0.0466}, {"sequence": "GACTTAAC", "PBM E-score": -0.0733}, {"sequence": "ACTCAAAT", "PBM E-score": 0.0793}, {"sequence": "ACAACAAC", "PBM E-score": 0.124}, {"sequence": "AAATTCCA", "PBM E-score": 0.0868}, {"sequence": "GCACGGCA", "PBM E-score": 0.162}, {"sequence": "TCAGAGCA", "PBM E-score": 0.0639}, {"sequence": "GGGAGGTA", "PBM E-score": -0.191}, {"sequence": "ATATGATA", "PBM E-score": 0.316}, {"sequence": "CGCTCCAG", "PBM E-score": -0.122}, {"sequence": "GAGTGCGC", "PBM E-score": 0.0788}, {"sequence": "ATAATATA", "PBM E-score": 0.186}, {"sequence": "ATCACGTG", "PBM E-score": 0.178}, {"sequence": "AATTAATA", "PBM E-score": 0.302}, {"sequence": "CAACTTAC", "PBM E-score": -0.0125}, {"sequence": "AATCAAGC", "PBM E-score": -0.066}, {"sequence": "AGACACCC", "PBM E-score": -0.18}, {"sequence": "AGCCGCTA", "PBM E-score": -0.292}, {"sequence": "CATCAGGA", "PBM E-score": -0.0271}, {"sequence": "AGGTGTCG", "PBM E-score": -0.0394}, {"sequence": "CTGGCCCA", "PBM E-score": -0.303}, {"sequence": "CGCATGAC", "PBM E-score": 0.207}, {"sequence": "TCGTGCAA", "PBM E-score": 0.361}, {"sequence": "CATAATCA", "PBM E-score": 0.253}, {"sequence": "CCTCTCTC", "PBM E-score": -0.312}, {"sequence": "ACTGATGC", "PBM E-score": -0.171}, {"sequence": "AGTGTCTG", "PBM E-score": -0.162}, {"sequence": "CCGGCTTC", "PBM E-score": -0.166}, {"sequence": "GAGGGTGC", "PBM E-score": -0.329}, {"sequence": "AAGTTGAT", "PBM E-score": 0.0854}, {"sequence": "AAGCTTCG", "PBM E-score": 0.00449}, {"sequence": "ACTTATTC", "PBM E-score": -0.00412}, {"sequence": "ACCCGGTC", "PBM E-score": -0.081}, {"sequence": "CGGCCAAA", "PBM E-score": 0.00205}, {"sequence": "TCACGTAA", "PBM E-score": 0.0101}, {"sequence": "GTCGATTA", "PBM E-score": 0.0468}, {"sequence": "CTGTTAAG", "PBM E-score": -0.0937}, {"sequence": "CACCGCTA", "PBM E-score": -0.0615}, {"sequence": "ATTGTTAA", "PBM E-score": -0.00049}, {"sequence": "AGCAAGCA", "PBM E-score": -0.137}, {"sequence": "GCTTGACA", "PBM E-score": -0.163}, {"sequence": "AACTGTGT", "PBM E-score": 0.064}, {"sequence": "GCCCCCGC", "PBM E-score": -0.435}, {"sequence": "ACGGCCAT", "PBM E-score": -0.0106}, {"sequence": "GACGCTGA", "PBM E-score": -0.0836}, {"sequence": "TCCATGAA", "PBM E-score": 0.0902}, {"sequence": "CGAGCAAC", "PBM E-score": 0.0494}, {"sequence": "GGTTACCA", "PBM E-score": 0.104}, {"sequence": "ATTGGCAA", "PBM E-score": 0.11}, {"sequence": "CGTCGGGA", "PBM E-score": 0.165}, {"sequence": "CTGGTCGC", "PBM E-score": -0.14}, {"sequence": "GTAGCGGA", "PBM E-score": 0.0389}, {"sequence": "ATCACGCA", "PBM E-score": 0.272}, {"sequence": "AAAGCGCT", "PBM E-score": 0.115}, {"sequence": "TAGAGGAA", "PBM E-score": -0.0779}, {"sequence": "ACGCGGAT", "PBM E-score": -0.024}, {"sequence": "ATTTCCCG", "PBM E-score": 0.149}, {"sequence": "AAAGGTCT", "PBM E-score": 0.0132}, {"sequence": "AGAGTGTA", "PBM E-score": -0.136}, {"sequence": "CCTGTTAA", "PBM E-score": 0.00201}, {"sequence": "ATAGAACA", "PBM E-score": -0.0151}, {"sequence": "ATGTACTA", "PBM E-score": 0.207}, {"sequence": "CCGTGTTA", "PBM E-score": 0.119}, {"sequence": "ACCTTTAG", "PBM E-score": 0.00374}, {"sequence": "ACTAAGGC", "PBM E-score": -0.0948}, {"sequence": "CGTCACTA", "PBM E-score": 0.374}, {"sequence": "CCAATCAG", "PBM E-score": -0.243}, {"sequence": "AGCGGCAG", "PBM E-score": -0.113}, {"sequence": "AGACGCCG", "PBM E-score": -0.0261}, {"sequence": "GAAGCCGA", "PBM E-score": -0.137}, {"sequence": "TAGGGATA", "PBM E-score": 0.0598}, {"sequence": "CAACTGAG", "PBM E-score": 0.0284}, {"sequence": "GACAACCA", "PBM E-score": 0.125}, {"sequence": "CGGTCAAC", "PBM E-score": 0.0203}]}]}
